# Library screening results

Measurements from “University of Dundee, Small-Polar-MMV Screening Library” (2021), ChEMBL document CHEMBL3988442.

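Whole-cell assay for inhibitors of Mycobacterium tuberculosis growth, labelled Cornell in the record; the read-out is not stated. The concentration is filed as 10 mM, unlikely as a test dose, so the dose is not known. Higher means stronger inhibition (inferred from two other growth screens of the library). Of about 53,000 compounds tested this way, about 900 (1.7%) reached 50% or more in at least one test.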

Each number is a percent effect as filed. The controls that fix the scale are not given in the record; negative values are as filed. Compounds were drawn at random from those tested, without regard to their results.

Result for CN(C)CCO[C@H]1C[C@@H](O)C12CCN(c1cnccn1)CC2 was -24.04%. With COc1ncc(CN(CCCN2CCOCC2)Cc2ccc(C)o2)cn1.O=C(O)CC(O)(CC(=O)O)C(=O)O the screen gave 10.8%. With [H][C@@]12CCN(C(=O)c3sccc3NC(C)=O)C[C@@]([H])(CC1)N2C the screen gave 21.79%. Result for O=C(O)c1ccn(-c2cccc(NC(=O)c3ccccc3Cl)c2)n1 was 8.609%.

Cn1cnc2c1C(C(=O)N1CCCO1)N(C(=O)c1ccccc1)CC2 (centres unmarked) read 35.11%. Result for CCN(CC)C(=O)CCNc1cncc(-n2nc(C)cc2C)n1 was 6.066%. Cc1c(C2SCC(=O)Nc3c2cnn3C(C)(C)C)cnn1C (centres unmarked) read 16.28%. Cc1cnn(CCNCc2ccccc2OCc2ccccn2)c1 gave -2.097%.

With [H][C@@]12CN(Cc3ccc(S(C)(=O)=O)cc3)C[C@]1([H])OCC(=O)N2CC(N)=O the screen gave -3.337%. With O=C(O)C(F)(F)F.c1cnc(NC2COC3(CCN(Cc4ccoc4)CC3)C2)nc1 (centres unmarked) the screen gave 1.664%. Cc1nccn1-c1ccc(CNS(=O)(=O)N2CCCCC2C)cn1 (centres unmarked) gave -1.598%. Result for COCc1cc(N2CCOC(c3ccc(Cl)c(Cl)c3)C2)ncn1 (centres unmarked) was 23.53%.

With CCN(CCc1nccs1)C(=O)c1sccc1C the screen gave 9.865%. With Cc1nn(C)cc1CN1CCc2nc(-c3cccnc3)nc(O)c2C1 the screen gave 10.96%. CCn1cc(CNc2ccc(Br)c(OC)c2)cn1 read -26.78%. Result for Cc1ncc(C(=O)NCCNc2ccncc2)s1 was -21.09%.

Result for Cc1noc(C)c1C(=O)N[C@@H]1CC[C@@H](Oc2ccccc2)[C@@H]1O was 21.33%. CCc1ncc(C(=O)NCCNc2ncnc3sccc23)s1 gave -5.265%. For N#Cc1ccc(F)c(CN2CCCC2Cn2cnc3ccccc32)c1 (centres unmarked) the result was 17.56%. For NC1(CNC(=O)c2cc3ccccc3[nH]2)CCCC1 the result was -7.054%.

Result for CCOC1CCC2(CCN(C(=O)c3c[nH]cn3)CC2)c2ccccc21 (centres unmarked) was 19.86%. With COCCN1CCC(c2cncc(N(C)C)n2)CC1 the screen gave -17.24%. For COCCNS(=O)(=O)c1ccc(CNc2ncccc2C#N)cc1 the result was 9.617%. Result for CCCc1nc(N(C)CCc2noc(C(C)C)n2)c2cnn(C)c2n1 was -1.06%.

Result for CN(CCC(O)c1ccccc1)Cc1nc(-c2ccccc2)no1 (centres unmarked) was -14.16%. Result for CN1CC[C@H](c2nnc(Cc3c[nH]c4ccccc34)o2)C1 was -18.3%. With CC(Cn1cncn1)NC(=O)Nc1ccc(F)cc1OCC1CC1 (centres unmarked) the screen gave 3.034%. For Oc1cccc(C2CN(c3nnc(C4CC4)s3)CCO2)c1 (centres unmarked) the result was 6.48%.

For NC(=O)C1(Cc2ccccc2-c2cncnc2)CCCNC1 (centres unmarked) the result was 45.33%. With COc1ccc(C2CCCN2C(=O)c2csc(NC(C)=O)n2)cc1 (centres unmarked) the screen gave 10.99%. Result for CC(C(=O)Nc1ccc(N2CCCCC2)nc1)n1cncn1 (centres unmarked) was -26.85%. With O=C(CC1CC1)N1CCC2(CC1)CN(Cc1cccnc1)C(=O)CO2.O=C(O)C(F)(F)F the screen gave 2.615%.

With O=C(O)C(F)(F)F.[H][C@]12CCN(S(=O)(=O)CC(C)C)CC[C@@]1([H])S(=O)(=O)CCN2CC(C)C the screen gave 20.35%. COCCCN(C)c1nc(-c2ccncc2)nc2c1CCN(C(C)=O)C2 read -26.88%. With CCc1nc(-c2cccc(C(=O)O)c2)no1 the screen gave -38.19%. With Cc1nc(N2CCC(O)(c3ccc(F)cc3)CC2)c2c(C)nn(C)c2n1 the screen gave 9.113%.

Result for CC1CCCCN1C(=O)c1cn(-c2ccc(C(F)(F)F)cn2)nn1 (centres unmarked) was 41.49%. For Cc1cc(C(=O)N2CCOC(c3nc(C)n[nH]3)C2)[nH]n1 (centres unmarked) the result was -3.729%. For Cc1ccc(N2CCC3(CC2)COCCN(c2nccs2)C3)nn1.O=C(O)C(F)(F)F.O=C(O)C(F)(F)F the result was 3.075%. With CN(C)C(=O)COc1ccccc1CNC1CCc2ncnn2C1 (centres unmarked) the screen gave 8.067%.

For Cc1cc(-c2nn(C)c(Cl)c2CN2CCOCC2CC(=O)O)no1 (centres unmarked) the result was 20.13%. For CCCN1CCCn2nc(CNS(=O)(=O)c3cnn(CC)c3)cc2C1 the result was 15.8%. N#Cc1ccc(Oc2cc(F)c(CN3CCCC3)c(F)c2)nc1 gave 19.17%. Result for Cc1cnc(CN(C)C2CCCN(c3cccnn3)C2)cn1 (centres unmarked) was 34.26%.

For Fc1ccccc1CC1CCN(Cc2cscn2)CC1 the result was 30.5%. O=C1CCC(c2nc(C3CCN(C(=O)Cc4cccs4)CC3)no2)N1 (centres unmarked) read 57.39%. COCCC(=O)N1C[C@@H](c2ccccc2F)[C@@]2(CCCC(=O)N2)C1 gave 10.19%. For C[C@@H]1CN(Cc2cc3ccccc3n2C)CC[C@]1(C)O the result was -1.216%.

Repeated from the top, 5 entries:

SMILES,effect
CN(C)CCO[C@H]1C[C@@H](O)C12CCN(c1cnccn1)CC2,-24.04%
COc1ncc(CN(CCCN2CCOCC2)Cc2ccc(C)o2)cn1.O=C(O)CC(O)(CC(=O)O)C(=O)O,10.8%
[H][C@@]12CCN(C(=O)c3sccc3NC(C)=O)C[C@@]([H])(CC1)N2C,21.79%
O=C(O)c1ccn(-c2cccc(NC(=O)c3ccccc3Cl)c2)n1,8.609%
Cn1cnc2c1C(C(=O)N1CCCO1)N(C(=O)c1ccccc1)CC2 (centres unmarked),35.11%